PubChem BioAssay AID504791 | Drosophila RNAi Screening Center – 2011

- Assay: 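Genes whose knock-down strengthens or weakens small-RNA reporter silencing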 (primary screen)
- Cells: Drosophila S2-derived reporter cells
- Knock-down reagent: long dsRNA against Drosophila genes, about 150-250 ng dsRNA per well (siRNA assay); about 80-120 ng (miRNA assay)
- Time to read-out: about 5 days (siRNA assay); about 4 days (miRNA assay)
- Challenge: copper sulfate induction of reporters: 25 µM (siRNA assay); 200 mM stated (miRNA assay), 1-2 days before reading
- Read-out: 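Per-well ratio of Renilla over firefly light, expressed relative to that plate's average ratio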
- Hit rule: 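First-pass picks had plate-scaled ratios over 1.5 for the siRNA assay, over 1.6 for the miRNA assay, or under 0.6; two distinct dsRNAs had to score alike on retest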
In all, the deposit lists about 23,000 reagents; below is a random part of those with a known target gene and a result. Over the whole deposit, 199 (0.86%) are marked active. 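Plate-scaled ratios behind the calls are not deposited; printed light signals are raw; many rows marked increased or decreased are still called inactive.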 A plus sign joins genes that one reagent is predicted to hit. No sequences are given here. Not given: the direction of the score.

gene | dsRNA | stable siRNA reporter change | miRNA reporter change | stable assay Renilla, run 1 (luminescence) | stable assay firefly, run 1 (luminescence) | Call
Fic (Fic domain-containing protein) | DRSC03247 | – | – | 42973 | 4.90e5 | inactive
CG12768 | DRSC11680 | – | – | 5498 | 2.68e5 | inactive
CG12768 | DRSC23215 | – | – | 3995 | 2.88e5 | inactive
CG12768 | DRSC28549 | – | reporter ratio raised past the hit cutoff | – | – | inactive
Rat1 (Rat1 5'-3' exoribonuclease) | DRSC02044 | – | – | 13041 | 5.42e5 | inactive
Elk (Eag-like K[+] channel) | DRSC07608 | – | – | 13954 | 6.42e5 | inactive
ry (rosy) | DRSC17048 | – | – | 7958 | 4.73e5 | inactive
nrm (neuromusculin) | DRSC11597 | – | – | 5207 | 3.49e5 | inactive
nrm (neuromusculin) | DRSC11599 | – | – | 6644 | 5.15e5 | inactive
nrm (neuromusculin) | DRSC11897 | – | – | 6836 | 4.16e5 | inactive
CG32537 | DRSC20073 | – | – | 7825 | 4.71e5 | inactive
gus (gustavus) | DRSC04885 | – | – | 29739 | 1.20e6 | inactive
gus (gustavus) | DRSC04886 | – | – | 4947 | 3.30e5 | inactive
gus (gustavus) | DRSC27153 | – | reporter ratio raised past the hit cutoff | – | – | inactive
CG10177 | DRSC14201 | – | – | 6514 | 2.70e5 | inactive
sxe2 (sex-specific enzyme 2) | DRSC15692 | – | – | 8377 | 2.94e5 | inactive
CG9297 | DRSC16469 | reporter ratio lowered past the hit cutoff | reporter ratio lowered past the hit cutoff | 7807 | 6.99e5 | inactive
hang (hangover) | DRSC19901 | – | – | 7183 | 3.11e5 | inactive
hang (hangover) | DRSC19902 | – | – | 4656 | 3.40e5 | inactive
hang (hangover) | DRSC23216 | reporter ratio raised past the hit cutoff | – | 4119 | 1.73e5 | inactive
Rala (Ras-like protein A) | DRSC18703 | – | – | 6052 | 4.84e5 | inactive
CG34051 | DRSC01739 | – | – | 5246 | 5.30e5 | inactive
CG5662 | DRSC19957 | – | – | 4571 | 3.94e5 | inactive
Afti (Aftiphilin) | DRSC16440 | – | – | 8026 | 4.41e5 | inactive
CG3558 | DRSC00615 | – | – | 50947 | 1.58e5 | inactive
CG31704 | DRSC22118 | – | – | 10101 | 6.72e5 | inactive
CG33914 | DRSC05033 | – | – | 5478 | 4.76e5 | inactive
CG9876 | DRSC04586 | – | – | 6158 | 2.97e5 | inactive
ppk6 (pickpocket 6) | DRSC06062 | – | – | 5770 | 3.14e5 | inactive
CG4074 | DRSC11752 | – | – | 7306 | 3.82e5 | inactive
SERCA (Sarco/endoplasmic reticulum Ca(2+)-ATPase) | DRSC04600 | – | – | 22015 | 9.82e5 | inactive
Svip (small VCP interacting protein) | DRSC08982 | – | – | 3807 | 3.26e5 | inactive
Lrt (Leucine-rich tendon-specific protein) | DRSC06045 | – | – | 5523 | 4.00e5 | inactive
Traf6 (TNF-receptor-associated factor 6) | DRSC18725 | – | – | 7418 | 3.64e5 | inactive
CG14573 | DRSC11734 | – | – | 6078 | 3.28e5 | inactive
Ns3 (Nucleostemin 3) | DRSC18607 | – | – | 2855 | 3.21e5 | inactive
CG12824 | DRSC06173 | – | – | 6474 | 4.26e5 | inactive
beat-Ia (beaten path Ia) | DRSC03489 | – | – | 9477 | 5.68e5 | inactive
byn (brachyenteron) | DRSC11332 | – | – | 6198 | 4.37e5 | inactive
CG11349 | DRSC08179 | – | – | 5574 | 3.63e5 | inactive
CG15601 | DRSC19670 | – | – | 5406 | 3.11e5 | inactive
pim (pimples) | DRSC03591 | – | – | 59202 | 8.72e5 | inactive
CG34462 | DRSC10768 | – | – | 7643 | 4.88e5 | inactive
Nha2 (Na[+]/H[+] hydrogen antiporter 2) | DRSC14689 | – | – | 6691 | 4.04e5 | inactive
Nha2 (Na[+]/H[+] hydrogen antiporter 2) | DRSC15619 | reporter ratio raised past the hit cutoff | – | 9844 | 2.37e5 | inactive
Nha2 (Na[+]/H[+] hydrogen antiporter 2) | DRSC15623 | – | – | 6490 | 3.21e5 | inactive
CG16789 | DRSC15155 | – | – | 7220 | 3.85e5 | inactive
CG6209 | DRSC06968 | – | – | 5834 | 2.86e5 | inactive
CG9616 | DRSC16518 | – | – | 7103 | 6.14e5 | inactive
APC10 (Anaphase Promoting Complex subunit 10) | DRSC06071 | – | – | 5792 | 3.01e5 | inactive
Cpr49Ah (Cuticular protein 49Ah) | DRSC07204 | – | – | 6654 | 3.47e5 | inactive
CG12091 | DRSC08251 | – | – | 6619 | 3.09e5 | inactive
CG14982 | DRSC08440 | reporter ratio raised past the hit cutoff | – | 4235 | 1.63e5 | inactive
CG14982 | DRSC23022 | – | – | 3635 | 2.77e5 | inactive
nompA (no mechanoreceptor potential A) | DRSC06329 | – | – | 6108 | 3.50e5 | inactive
Pi3K59F (Phosphatidylinositol 3-kinase 59F) | DRSC04640 | – | – | 2.84e5 | 1.29e6 | inactive
Nup160 (Nucleoporin 160kD) | DRSC02774 | reporter ratio raised past the hit cutoff | – | 12094 | 3.36e5 | active
sit (stuck in traffic) | DRSC15760 | – | – | 6730 | 4.72e5 | inactive
Dhod (Dihydroorotate dehydrogenase) | DRSC16647 | – | – | 5731 | 3.43e5 | inactive
CG5357 (retired record) | DRSC04497 | – | – | 6431 | 3.10e5 | inactive
ftz-f1 (ftz transcription factor 1) | DRSC11347 | – | – | 7006 | 3.90e5 | inactive
CG13516 | DRSC04159 | – | – | 6208 | 3.94e5 | inactive
Mcm10 (Minichromosome maintenance 10) | DRSC03162 | – | – | 95528 | 1.31e6 | inactive
Eps-15 (Epidermal growth factor receptor pathway substrate clone 15) | DRSC04288 | – | – | 11544 | 2.29e6 | inactive
Mst84Dd (Male-specific RNA 84Dd) | DRSC12600 | – | – | 7475 | 5.82e5 | inactive
COX4L (Cytochrome c oxidase subunit 4-like) | DRSC04841 | – | – | 5480 | 3.13e5 | inactive
DhpD (Dihydropterin deaminase) | DRSC12288 | – | – | 9867 | 3.42e5 | inactive
Neb-cGP | DRSC17991 | – | – | 5359 | 5.20e5 | inactive
CG4036 | DRSC02735 | – | – | 6086 | 3.97e5 | inactive
CG9114 | DRSC20155 | – | – | 6416 | 5.80e5 | inactive
Timp (Tissue inhibitor of metalloproteases) | DRSC17082 | – | – | 7414 | 3.86e5 | inactive
CG42232 | DRSC15018 | – | – | 9177 | 3.06e5 | inactive
CG42232 | DRSC15019 | – | – | 8539 | 3.65e5 | inactive
CG18536 | DRSC06763 | – | – | 6404 | 3.82e5 | inactive
svr (silver) | DRSC17293 | – | – | 6680 | 2.74e5 | inactive
svr (silver) | DRSC18841 | – | – | 6494 | 4.25e5 | inactive
CG10761 | DRSC17753 | – | – | 6123 | 2.94e5 | inactive
Pgam5 (Phosphoglycerate mutase 5) | DRSC18551 | – | – | 8610 | 5.17e5 | inactive
Mybbp1A (MYB binding protein 1a) | DRSC18788 | – | – | 7963 | 4.45e5 | inactive
CG34386 | DRSC06467 | – | – | 4528 | 1.67e5 | inactive
CG34386 | DRSC06468 | – | – | 6618 | 3.55e5 | inactive
CG34386 | DRSC23234 | – | – | 4659 | 3.27e5 | inactive
Actbeta (Activin-beta) | DRSC17185 | – | – | 5467 | 2.73e5 | inactive
Actbeta (Activin-beta) | DRSC17217 | – | – | 5672 | 3.22e5 | inactive
CG13842 | DRSC14692 | – | – | 6522 | 3.21e5 | inactive
bard | DRSC14796 | – | – | 6866 | 2.85e5 | inactive
CG6179 | DRSC19973 | – | – | 5578 | 4.20e5 | inactive
gry (gryzun) | DRSC08028 | – | – | 3952 | 4.67e5 | inactive
gry (gryzun) | DRSC08518 | – | – | 7399 | 5.44e5 | inactive
asl (asterless) | DRSC12319 | reporter ratio raised past the hit cutoff | – | 12415 | 2.38e5 | inactive
TBC1d7 + mRpS24 | DRSC14611 | – | – | 6226 | 3.81e5 | inactive
CG32544 | DRSC20033 | – | – | 5964 | 4.68e5 | inactive
Cog6 (Component of oligomeric golgi complex 6) | DRSC06806 | – | – | 7567 | 3.46e5 | inactive
CG9040 | DRSC11053 | – | – | 6735 | 4.98e5 | inactive
CG12995 | DRSC19515 | – | – | 5328 | 4.20e5 | inactive
CG11470 | DRSC14313 | – | – | 6546 | 3.62e5 | inactive
CG9864 | DRSC07346 | – | – | 5914 | 2.81e5 | inactive
FarO (Fatty acyl-CoA reductase in oenocytes) | DRSC18475 | – | – | 5507 | 3.18e5 | inactive
Obp50b + Obp50c | DRSC21818 | – | – | 9302 | 5.65e5 | inactive
CG6770 | DRSC02992 | – | – | 4551 | 4.71e5 | inactive
sl (small wing) | DRSC20377 | – | – | 6895 | 5.11e5 | inactive
sl (small wing) | DRSC21782 | – | – | 9145 | 4.25e5 | inactive
CG9286 | DRSC16467 | – | – | 10585 | 4.87e5 | inactive
CG31115 | DRSC13692 | – | – | 5667 | 3.20e5 | inactive
GstD5 (Glutathione S transferase D5) | DRSC16686 | – | – | 6440 | 3.79e5 | inactive
CG15099 | DRSC06528 | – | – | 10451 | 5.20e5 | inactive

Only “stable assay firefly, run 1 (luminescence)” (14 entries from above):
Timp (Tissue inhibitor of metalloproteases) [DRSC17082]	3.86e5
CG42232 [DRSC15018]	3.06e5
CG42232 [DRSC15019]	3.65e5
CG18536 [DRSC06763]	3.82e5
svr (silver) [DRSC17293]	2.74e5
svr (silver) [DRSC18841]	4.25e5
CG10761 [DRSC17753]	2.94e5
Pgam5 (Phosphoglycerate mutase 5) [DRSC18551]	5.17e5
Mybbp1A (MYB binding protein 1a) [DRSC18788]	4.45e5
CG34386 [DRSC06467]	1.67e5
CG34386 [DRSC06468]	3.55e5
CG34386 [DRSC23234]	3.27e5
Actbeta (Activin-beta) [DRSC17185]	2.73e5
Actbeta (Activin-beta) [DRSC17217]	3.22e5
